PubChem BioAssay AID1259308 | NCATS, 2017
Purpose: 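Genes whose loss raises luciferase production in HEK293 cells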 (primary screen). System: human HEK293 embryonic kidney cells stably expressing firefly luciferase (HEK-CMV-Luc2-Hygro). Reagents: single siRNA against human genes, 0.8 pmol siRNA per well. Time to read-out: 72 h. Detection: 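Luciferase light (ONE-Glo) measured on one replicate plate set and viability (CellTiter-Glo) on the other, scaled to a negative control siRNA, with robust z-scores and luciferase per cell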. Direction: total luciferase, z-score: higher = more reporter protein produced. Call rule: 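Active when the median/MAD z-score for overall luciferase is greater than 3; a gene was taken forward for validation with new siRNAs if at least two of its three siRNAs passed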. Calls: active = raised luciferase; inactive = no rise.
In all, the deposit lists about 59,000 reagents; this is an unselected part. About 1,510 of all reagents (2.6%) were called active. 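Calls use total luciferase alone and ignore viability, so some active siRNAs may act by altering cell number.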 The numbers tell different reagents against one gene apart. Further read-outs or replicates are left out here. No sequences are given here.

With SLC37A1 (GeneID 54020) #1, what does the deposit list?
total luciferase, z-score: -1.53; Outcome: inactive

What is on record for SLC37A1 (GeneID 54020) #2?
total luciferase, z-score: -1.88; Outcome: inactive

How did the screen score SLC37A1 (GeneID 54020) #3?
total luciferase, z-score: -1.5; Outcome: inactive

With C10orf90 (GeneID 118611) #1, what was measured?
total luciferase, z-score: -0.708; Outcome: inactive

For C10orf90 (GeneID 118611) #2, what was measured?
total luciferase, z-score: 0.435; Outcome: inactive

How did the screen score C10orf90 (GeneID 118611) #3?
total luciferase, z-score: -0.526; Outcome: inactive

How did the screen score NREP (GeneID 9315) #1?
total luciferase, z-score: 0.766; Outcome: inactive

What did the screen give for NREP (GeneID 9315) #2?
total luciferase, z-score: -1.21; Outcome: inactive

Which result is listed for NREP (GeneID 9315) #3?
total luciferase, z-score: 0.0595; Outcome: inactive

For ELOA (GeneID 6924) #1, what does the deposit list?
total luciferase, z-score: -1.08; Outcome: inactive

With ELOA (GeneID 6924) #2, how do the results read?
total luciferase, z-score: -0.563; Outcome: inactive

Which result is listed for ELOA (GeneID 6924) #3?
total luciferase, z-score: 0.0398; Outcome: inactive

A run of entries taken from the entries so far:
C10orf90 (GeneID 118611) #1 — total luciferase, z-score = -0.708; Outcome = inactive
C10orf90 (GeneID 118611) #2 — total luciferase, z-score = 0.435; Outcome = inactive
C10orf90 (GeneID 118611) #3 — total luciferase, z-score = -0.526; Outcome = inactive

More reagents:
What did the screen give for KAT7 (GeneID 11143) #1?
total luciferase, z-score: -1.14; Outcome: inactive

With KAT7 (GeneID 11143) #2, how do the results read?
total luciferase, z-score: -0.023; Outcome: inactive

For KAT7 (GeneID 11143) #3, what does the deposit list?
total luciferase, z-score: 0.265; Outcome: inactive

For OSTN (GeneID 344901) #1, what does the deposit list?
total luciferase, z-score: -0.347; Outcome: inactive

What is on record for OSTN (GeneID 344901) #2?
total luciferase, z-score: -0.187; Outcome: inactive

What did the screen give for OSTN (GeneID 344901) #3?
total luciferase, z-score: 0.478; Outcome: inactive

With AP1M1 (GeneID 8907) #1, how do the results read?
total luciferase, z-score: 1.14; Outcome: inactive

For AP1M1 (GeneID 8907) #2, how do the results read?
total luciferase, z-score: -0.165; Outcome: inactive

For AP1M1 (GeneID 8907) #3, how do the results read?
total luciferase, z-score: -0.061; Outcome: inactive
